The match of structure and compound is tentative.
Molecular target: hTLR7 (Homo sapiens, UniProt Q9NYK1)
Assay: HEK-Blue hTLR7 reporter assay (NF-kB-induced SEAP, Quanti-Blue)
Assay type: cell-based
Conditions: HEK-Blue hTLR7 reporter cell line; data not shown

Sequences of proteins named here, by UniProt entry; tags and fusion partners are left off. Residues count along the entry.
UniProt Q9NYK1, 27-1049 limits assumed: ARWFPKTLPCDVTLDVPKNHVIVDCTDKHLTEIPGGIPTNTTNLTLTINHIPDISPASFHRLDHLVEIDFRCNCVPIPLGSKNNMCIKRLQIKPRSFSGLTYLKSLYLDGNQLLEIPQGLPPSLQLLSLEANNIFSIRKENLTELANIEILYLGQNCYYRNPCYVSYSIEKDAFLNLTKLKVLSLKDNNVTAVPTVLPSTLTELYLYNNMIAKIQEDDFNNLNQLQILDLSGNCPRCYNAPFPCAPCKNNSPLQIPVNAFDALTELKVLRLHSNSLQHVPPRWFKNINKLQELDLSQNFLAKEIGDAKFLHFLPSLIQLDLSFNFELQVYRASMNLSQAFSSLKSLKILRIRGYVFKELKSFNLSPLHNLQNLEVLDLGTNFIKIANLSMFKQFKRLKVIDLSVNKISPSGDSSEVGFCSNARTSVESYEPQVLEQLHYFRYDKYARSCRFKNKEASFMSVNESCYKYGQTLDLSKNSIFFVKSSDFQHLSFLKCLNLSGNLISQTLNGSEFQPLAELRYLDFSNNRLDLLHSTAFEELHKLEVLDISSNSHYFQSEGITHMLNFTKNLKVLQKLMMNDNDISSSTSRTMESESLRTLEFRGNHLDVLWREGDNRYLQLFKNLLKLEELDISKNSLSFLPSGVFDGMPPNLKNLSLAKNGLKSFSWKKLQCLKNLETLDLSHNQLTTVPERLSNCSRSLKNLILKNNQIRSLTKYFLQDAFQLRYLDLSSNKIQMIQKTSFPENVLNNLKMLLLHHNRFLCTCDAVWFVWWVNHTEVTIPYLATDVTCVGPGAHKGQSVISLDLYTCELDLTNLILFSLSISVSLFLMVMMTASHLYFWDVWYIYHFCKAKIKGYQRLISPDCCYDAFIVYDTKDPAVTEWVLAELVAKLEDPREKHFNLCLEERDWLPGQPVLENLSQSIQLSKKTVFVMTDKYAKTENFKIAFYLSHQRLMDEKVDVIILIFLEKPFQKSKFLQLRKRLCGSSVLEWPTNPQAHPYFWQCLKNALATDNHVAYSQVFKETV

EC50: 435 nM
Compound: CCCCc1nc2cnc3ccccc3c2n1CCOCCNC(=O)OC(C)(C)C

Reference: patent publication US20230302150A1, “ANTIBODY-TLR AGONIST CONJUGATES, METHODS AND USES THEREOF” (Ambrx, Inc., priority 2020, published 2023)
